No constants are given. Whether binding was seen depends on the method and setting. In cells and extracts the contact can be indirect. Where a sequence is shown, tags or fusion partners need not be part of it.

Here are results for two substances from publication PMC7145992.

In this assay the target is T1, GFP-tagged MtPT1 (Medicago truncatula) (UniProt O22301).
T1 sequence: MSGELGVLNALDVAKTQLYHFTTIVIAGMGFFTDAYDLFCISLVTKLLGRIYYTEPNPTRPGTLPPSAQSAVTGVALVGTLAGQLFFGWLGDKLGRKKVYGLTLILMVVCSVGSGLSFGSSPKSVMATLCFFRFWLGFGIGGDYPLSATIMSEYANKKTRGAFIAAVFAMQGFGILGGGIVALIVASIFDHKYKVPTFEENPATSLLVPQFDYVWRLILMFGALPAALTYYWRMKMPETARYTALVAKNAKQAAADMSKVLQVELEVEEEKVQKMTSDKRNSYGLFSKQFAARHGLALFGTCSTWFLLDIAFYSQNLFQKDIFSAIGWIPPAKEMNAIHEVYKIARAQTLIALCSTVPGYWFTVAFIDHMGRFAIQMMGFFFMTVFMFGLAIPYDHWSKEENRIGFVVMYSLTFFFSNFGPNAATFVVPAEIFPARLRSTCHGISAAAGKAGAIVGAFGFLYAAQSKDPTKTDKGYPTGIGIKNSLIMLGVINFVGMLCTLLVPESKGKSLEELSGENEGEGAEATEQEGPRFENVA
The assay is described as follows: co-IP; GFP-labeled syntaxins (or GFP-PT1) immunoprecipitated with anti-GFP agarose beads (Chromotek) from RIPA-buffer extracts of mycorrhized Medicago roots, 1 h at 4°C; co-purified 3HA-VAMPs detected by anti-HA western blot; performed twice. (In general: Immunoblotting shows a protein as a band on a membrane.)

Consider “triple HA-tag labeled MtVAMP721e (Medicago truncatula)”, for which the binding result is listed as “no binding”. The entry for “triple HA-tag labeled MtVAMP724 (Medicago truncatula)” is “no binding”.
